We go through one substance from article PMC3689823.

The chains behind the UniProt entries cited, without tags or fusion partners. Residues count along the entry.
UniProt Q06890, residues 22-448: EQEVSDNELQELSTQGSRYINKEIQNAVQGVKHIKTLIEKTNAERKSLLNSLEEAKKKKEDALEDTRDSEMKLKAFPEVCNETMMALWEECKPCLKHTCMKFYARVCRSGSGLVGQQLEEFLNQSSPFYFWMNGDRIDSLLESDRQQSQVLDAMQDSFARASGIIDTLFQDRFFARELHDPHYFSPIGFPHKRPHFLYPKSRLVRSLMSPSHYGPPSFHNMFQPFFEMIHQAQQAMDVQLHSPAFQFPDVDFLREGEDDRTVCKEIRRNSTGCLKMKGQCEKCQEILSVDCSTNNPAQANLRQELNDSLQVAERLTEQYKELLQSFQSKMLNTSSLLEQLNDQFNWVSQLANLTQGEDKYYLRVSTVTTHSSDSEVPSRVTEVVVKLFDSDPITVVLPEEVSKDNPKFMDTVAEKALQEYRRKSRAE

These are yes or no findings as the source states them, for the method shown. Binding seen in cells or lysates may run through a third protein. Some binding calls cover weakened binding; strength is not graded here.

In this test the target is T1, endogenous SelR (mouse cerebral cortex) (mouse (endogenous in cerebral cortex)) (UniProt Q9JLC3).
T1 sequence: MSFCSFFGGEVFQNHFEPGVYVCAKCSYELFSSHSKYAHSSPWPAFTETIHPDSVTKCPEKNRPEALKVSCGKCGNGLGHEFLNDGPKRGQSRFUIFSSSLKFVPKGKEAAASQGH
The experiment in a line: co-IP; mouse cerebral cortex lysate in RIPA buffer; IP with SelR antibody overnight at 4°C, Western blot with Clu antibody.

As to “endogenous Clu (mouse cerebral cortex) (from UniProt Q06890 22-448)”, the binding entry was “binds”.
